# PubChem BioAssay AID1224826, NIAID | 2016
# Aim: 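Regulators of Tlr4 signalling leading to Tnf-alpha expression in macrophages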 (primary screen)
# System: RAW264.7 G9 macrophages from mouse bearing reporters for p65 (GFP) and the Tnf promoter (mCherry)
# Reagents: siRNA pool against mouse genes, 100 nM
# Time to read-out: 16 h of LPS stimulation, after 2 days of siRNA transfection
# Conditions: bacterial lipopolysaccharide (Salmonella minnesota R595), 10 ng/ml
# Measurement: 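Nuclear mCherry signal of the Tnf promoter reporter measured by imaging after background removal, scaled to each plate median and turned into robust z-scores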
# Reading the numbers: Tnf reporter robust z-score: higher = stronger Tnf promoter reporter signal after LPS; Tnf reporter intensity: higher = stronger Tnf promoter reporter signal
# Call rule: 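a well counts as active at a score of -1.3 or below (Tlr4 knock-down control median) or above 3 (raised signal); controls and wells holding fewer than 50 cells are excluded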
# Meaning of the calls: active = Tnf reporter clearly lowered or raised; inactive = no clear change in Tnf reporter
# The whole screen tested about 17,000 reagents; this is a part drawn at random. About 1,110 of them (6.6%) count as active. 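Active means lowered or raised reporter signal; replicate intensities are raw and not normalised per plate.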 A number with no mark means an inactive call.
Gene,Tnf reporter robust z-score,fewer than 50 cells in well,"Tnf reporter intensity, replicate 1","Tnf reporter intensity, replicate 2"
Sh3bgrl3 (GeneID 73723),,fewer than 50 cells per well; well left out of calls,25.6,37.9
Stip1 (GeneID 20867),-0.6,enough cells in well,209,183
Ggh (GeneID 14590),0.18,enough cells in well,311,215
Cry2 (GeneID 12953),0.01,enough cells in well,118,247
Tmem74b (GeneID 108832),-1.07,enough cells in well,102,90.4
Adgrg7 (GeneID 239853),0.38,enough cells in well,240,337
Mcam (GeneID 84004),0,enough cells in well,258,209
Crtc3 (GeneID 70461),-0.08,enough cells in well,190,214
Ccdc25 (GeneID 67179),,fewer than 50 cells per well; well left out of calls,122,24.1
Cycs (GeneID 13063),2.1,enough cells in well,374,240
Fam163b (GeneID 109349),1.58,enough cells in well,255,266
Lrrc75a (GeneID 192976),0.39,enough cells in well,142,160
Retsat (GeneID 67442),,fewer than 50 cells per well; well left out of calls,144,50.3
Hepacam (GeneID 72927),,fewer than 50 cells per well; well left out of calls,140,44.8
Ufsp2 (GeneID 192169),2.09,enough cells in well,241,116
Or4c113 (GeneID 258815),-1.13,enough cells in well,118,91.7
Gsdmc2 (GeneID 331063),-0.32,enough cells in well,214,138
Lancl2 (GeneID 71835),0.44,enough cells in well,188,173
Cacng8 (GeneID 81905),-0.78,enough cells in well,120,131
Tacstd2 (GeneID 56753),-1.48 (active),enough cells in well,109,71.6
Mrto4 (GeneID 69902),0.4,enough cells in well,281,100
Palmd (GeneID 114301),-1.27,enough cells in well,100,60.7
Glg1 (GeneID 20340),-0.44,enough cells in well,215,149
Or8h9 (GeneID 258764),0.04,enough cells in well,224,125
Usp17lc (GeneID 13532),1.2,enough cells in well,245,173
C8a (GeneID 230558),0.09,enough cells in well,149,168
Spta1 (GeneID 20739),-0.41,enough cells in well,250,178
Tamalin (GeneID 56149),0.06,enough cells in well,247,253
Upk3a (GeneID 22270),0.73,enough cells in well,147,53.1
Il18 (GeneID 16173),0.26,enough cells in well,243,175
Sync (GeneID 68828),0.63,enough cells in well,142,49.4
Dhdh (GeneID 71755),,fewer than 50 cells per well; well left out of calls,201,49.3
Rce1 (GeneID 19671),0.53,enough cells in well,373,236
Nudt1 (GeneID 17766),1.16,enough cells in well,364,231
Zmym1 (GeneID 68310),0.2,enough cells in well,122,146
B230340J04Rik (GeneID 320703),-0.15,enough cells in well,186,134
Myh6 (GeneID 17888),-0.24,enough cells in well,280,158
Pitrm1 (GeneID 69617),-0.68,enough cells in well,192,146
Rap2b (GeneID 74012),-1,enough cells in well,231,118
Saa4 (GeneID 20211),-0.96,enough cells in well,97.4,75.8
Slc51b (GeneID 330962),0.42,enough cells in well,114,204
Pmvk (GeneID 68603),-0.68,enough cells in well,146,129
Aprt (GeneID 11821),-1.45 (active),enough cells in well,84.2,88.7
Numa1 (GeneID 101706),-0.62,enough cells in well,124,100
1810024B03Rik (GeneID 329509),,fewer than 50 cells per well; well left out of calls,187,93.9
Plekha2 (GeneID 83436),-0.6,enough cells in well,175,98.3
Ppp6r3 (GeneID 52036),-0.32,enough cells in well,162,133
Chek2 (GeneID 50883),1.85,enough cells in well,317,257
Cntn1 (GeneID 12805),-0.17,enough cells in well,242,186
Btn2a2 (GeneID 238555),3.13 (active),enough cells in well,188,343
Taf1 (GeneID 270627),5.84 (active),enough cells in well,355,477
R3hdm4 (GeneID 109284),0.4,enough cells in well,149,150
Cdc16 (GeneID 69957),0.01,enough cells in well,267,190
Dock5 (GeneID 68813),-0.76,enough cells in well,138,85.7
Gipc2 (GeneID 54120),0.06,enough cells in well,312,197
Scin (GeneID 20259),-1.08,enough cells in well,86.9,75.4
Tbc1d2 (GeneID 381605),-0.6,enough cells in well,125,135
Utp6 (GeneID 216987),0.23,enough cells in well,212,72.8
Rab11fip3 (GeneID 215445),-1.34 (active),enough cells in well,106,92.4
Clcn5 (GeneID 12728),0.29,enough cells in well,244,254
Pyy (GeneID 217212),-0.03,enough cells in well,138,119
Ugt2b1 (GeneID 71773),0.16,enough cells in well,172,160
Paf1 (GeneID 54624),0.11,enough cells in well,189,155
Mcf2l (GeneID 17207),1.17,enough cells in well,230,233
Lsm14a (GeneID 67070),,fewer than 50 cells per well; well left out of calls,235,85.7
Psmb5 (GeneID 19173),4.36 (active),enough cells in well,348,292
Txnrd1 (GeneID 50493),0.16,enough cells in well,251,232
Matn1 (GeneID 17180),0.77,enough cells in well,340,252
Or11g25 (GeneID 258233),-0.64,enough cells in well,78.7,33.7
Ghsr (GeneID 208188),0.96,enough cells in well,254,445
Med30 (GeneID 69790),-0.06,enough cells in well,115,40.8
Usp6nl (GeneID 98910),0.79,enough cells in well,272,226
Cimap1c (GeneID 382075),1.21,enough cells in well,97.4,233
Atoh8 (GeneID 71093),-0.21,enough cells in well,128,178
Selenon (GeneID 74777),2.38,enough cells in well,154,212

An excerpt of the results above:
Gene,Tnf reporter robust z-score,fewer than 50 cells in well,"Tnf reporter intensity, replicate 1","Tnf reporter intensity, replicate 2"
Cacng8 (GeneID 81905),-0.78,enough cells in well,120,131
Tacstd2 (GeneID 56753),-1.48 (active),enough cells in well,109,71.6
Mrto4 (GeneID 69902),0.4,enough cells in well,281,100
Palmd (GeneID 114301),-1.27,enough cells in well,100,60.7
Glg1 (GeneID 20340),-0.44,enough cells in well,215,149
Or8h9 (GeneID 258764),0.04,enough cells in well,224,125
Usp17lc (GeneID 13532),1.2,enough cells in well,245,173
C8a (GeneID 230558),0.09,enough cells in well,149,168
Spta1 (GeneID 20739),-0.41,enough cells in well,250,178
Tamalin (GeneID 56149),0.06,enough cells in well,247,253
